Experimental data as given in patent US4556674A, “2-Imino-pyrrolidines, process for their preparation, and therapeutic compositions containing same” (Laboratoires Jacques Logeais, priority 1983, dated 1985).
At least one compound was matched to its structure with a doubt left.

System: human plasma clots
Assay: Fibrinolytic activity (lysis of human plasma clots)
Design: unit not given here
Conditions: veronal buffer pH 7.2-7.4, 37° C.
Method: The following method was used.
Human plasma clots were prepared by recalcification (one drop of calcium thrombase at 20 U/ml per 0.5 ml of plasma), so that the clot formed around the hook of a glass rod. The clots were then suspended in buffered solutions (veronal buffer pH 7.2-7.4) maintained at 37° C. The eventual lysis of the clot is recorded after 24 hrs and 48 hrs incubation.

With `CC(Cc1ccccc1)N=C1CC(c2ccccc2)CN1C` (stereo not shown) [Example 2, 1-Methyl-4-phenyl-2-phenylisopropylimino-pyrrolidine] the “Concentration inducing lysis of the clot within 24 hours” value was 20.
